The list shows a part of the results.
What was measured:
Experiment in all cases: log2 fold change, soluble protein after heating vs DMSO (PISA); higher = thermal stabilisation; K562 lysate, 10 uM; active = over 0.2 and 3.5 SD of the protein, either way, in both replicates (recomputed)
[1] = compound: C#Cc1cccc(Nc2ncnc3cc(OCCOC)c(OCCOC)cc23)c1 [erlotinib]
Summary of the method: (§1)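 K562 pellets were dounce-homogenised in PBS pH 7.4 containing 1 mM MgCl2, and the crude extract, at 1 mg/mL protein, was exposed to 10 μM compound for 30 min. Aliquots were heated for 3 min across 48°C-58°C, pooled, brought to 0.5% NP-40 at 4°C and spun at 21,000xg for 90 min, with the supernatant taken as soluble protein. TMTpro 16plex LC-MS/MS with equalised channel sums quantified that protein. Values are log-two fold changes in thermal stability relative to solvent controls, taken from duplicates.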

By UniProt entry, the sequences of proteins in these tests, tags left out. Where a name states a change or a piece, a line headed by the entry shows the natural chain unless it says otherwise.
UniProt Q7Z422: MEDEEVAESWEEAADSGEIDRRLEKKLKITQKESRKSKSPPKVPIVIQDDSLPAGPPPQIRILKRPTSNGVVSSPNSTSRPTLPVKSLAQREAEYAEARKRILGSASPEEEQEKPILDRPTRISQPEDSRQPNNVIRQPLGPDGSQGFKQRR
UniProt O43426, whole entry, looked up: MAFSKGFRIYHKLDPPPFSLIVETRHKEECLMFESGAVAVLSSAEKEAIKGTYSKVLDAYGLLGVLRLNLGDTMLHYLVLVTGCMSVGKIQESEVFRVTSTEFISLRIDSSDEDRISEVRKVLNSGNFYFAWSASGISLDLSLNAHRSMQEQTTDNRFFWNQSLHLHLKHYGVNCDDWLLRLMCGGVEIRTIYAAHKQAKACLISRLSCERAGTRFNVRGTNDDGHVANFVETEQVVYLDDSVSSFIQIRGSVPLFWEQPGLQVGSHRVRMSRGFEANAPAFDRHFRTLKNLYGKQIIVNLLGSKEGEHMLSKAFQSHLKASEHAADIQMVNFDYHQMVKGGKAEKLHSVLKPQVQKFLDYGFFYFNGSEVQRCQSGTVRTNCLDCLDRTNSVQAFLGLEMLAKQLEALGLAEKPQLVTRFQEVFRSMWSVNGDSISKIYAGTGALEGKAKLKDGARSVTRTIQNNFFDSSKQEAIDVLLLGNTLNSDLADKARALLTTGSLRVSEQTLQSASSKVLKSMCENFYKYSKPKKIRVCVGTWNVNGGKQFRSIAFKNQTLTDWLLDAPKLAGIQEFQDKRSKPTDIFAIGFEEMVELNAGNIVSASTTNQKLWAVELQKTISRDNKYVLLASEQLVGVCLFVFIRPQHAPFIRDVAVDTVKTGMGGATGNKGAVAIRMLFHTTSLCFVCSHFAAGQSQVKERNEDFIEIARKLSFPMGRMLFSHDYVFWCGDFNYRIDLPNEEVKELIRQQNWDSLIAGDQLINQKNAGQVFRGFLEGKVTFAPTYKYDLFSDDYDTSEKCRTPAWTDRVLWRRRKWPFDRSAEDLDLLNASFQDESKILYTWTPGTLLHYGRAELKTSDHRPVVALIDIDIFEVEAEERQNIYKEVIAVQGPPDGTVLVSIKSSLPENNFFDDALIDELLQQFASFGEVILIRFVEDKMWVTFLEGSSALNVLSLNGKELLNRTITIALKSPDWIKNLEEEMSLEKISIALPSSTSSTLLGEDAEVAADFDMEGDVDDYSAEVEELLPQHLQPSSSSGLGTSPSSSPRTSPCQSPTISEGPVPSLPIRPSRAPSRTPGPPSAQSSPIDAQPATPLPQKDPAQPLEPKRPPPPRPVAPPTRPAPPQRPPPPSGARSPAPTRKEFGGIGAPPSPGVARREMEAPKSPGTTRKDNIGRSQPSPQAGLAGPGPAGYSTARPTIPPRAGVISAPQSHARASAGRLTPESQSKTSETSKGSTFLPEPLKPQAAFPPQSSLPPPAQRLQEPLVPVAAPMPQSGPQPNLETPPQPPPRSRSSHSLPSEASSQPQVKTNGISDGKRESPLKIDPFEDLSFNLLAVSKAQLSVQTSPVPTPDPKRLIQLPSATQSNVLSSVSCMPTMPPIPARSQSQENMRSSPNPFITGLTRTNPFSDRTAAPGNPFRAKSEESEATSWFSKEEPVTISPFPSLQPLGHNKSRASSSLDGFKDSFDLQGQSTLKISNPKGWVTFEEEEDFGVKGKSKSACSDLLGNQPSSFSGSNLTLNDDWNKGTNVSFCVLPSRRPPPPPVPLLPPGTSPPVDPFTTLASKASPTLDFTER
UniProt Q9NZ72: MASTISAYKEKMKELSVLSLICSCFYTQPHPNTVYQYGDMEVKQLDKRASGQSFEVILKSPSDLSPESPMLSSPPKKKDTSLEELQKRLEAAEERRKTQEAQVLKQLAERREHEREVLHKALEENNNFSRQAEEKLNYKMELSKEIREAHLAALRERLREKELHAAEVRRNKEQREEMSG
UniProt Q9P289: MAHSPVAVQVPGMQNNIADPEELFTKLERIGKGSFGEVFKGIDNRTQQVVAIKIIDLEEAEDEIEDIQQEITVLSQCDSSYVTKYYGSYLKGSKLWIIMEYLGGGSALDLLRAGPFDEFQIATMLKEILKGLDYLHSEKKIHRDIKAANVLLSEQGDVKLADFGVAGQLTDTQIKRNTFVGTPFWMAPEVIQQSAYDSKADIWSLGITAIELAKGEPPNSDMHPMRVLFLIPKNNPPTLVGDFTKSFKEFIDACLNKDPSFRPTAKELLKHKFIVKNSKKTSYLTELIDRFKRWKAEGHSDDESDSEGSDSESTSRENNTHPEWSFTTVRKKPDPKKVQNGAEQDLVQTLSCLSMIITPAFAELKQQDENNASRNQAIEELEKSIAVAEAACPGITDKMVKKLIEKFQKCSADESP
UniProt Q8TCJ2: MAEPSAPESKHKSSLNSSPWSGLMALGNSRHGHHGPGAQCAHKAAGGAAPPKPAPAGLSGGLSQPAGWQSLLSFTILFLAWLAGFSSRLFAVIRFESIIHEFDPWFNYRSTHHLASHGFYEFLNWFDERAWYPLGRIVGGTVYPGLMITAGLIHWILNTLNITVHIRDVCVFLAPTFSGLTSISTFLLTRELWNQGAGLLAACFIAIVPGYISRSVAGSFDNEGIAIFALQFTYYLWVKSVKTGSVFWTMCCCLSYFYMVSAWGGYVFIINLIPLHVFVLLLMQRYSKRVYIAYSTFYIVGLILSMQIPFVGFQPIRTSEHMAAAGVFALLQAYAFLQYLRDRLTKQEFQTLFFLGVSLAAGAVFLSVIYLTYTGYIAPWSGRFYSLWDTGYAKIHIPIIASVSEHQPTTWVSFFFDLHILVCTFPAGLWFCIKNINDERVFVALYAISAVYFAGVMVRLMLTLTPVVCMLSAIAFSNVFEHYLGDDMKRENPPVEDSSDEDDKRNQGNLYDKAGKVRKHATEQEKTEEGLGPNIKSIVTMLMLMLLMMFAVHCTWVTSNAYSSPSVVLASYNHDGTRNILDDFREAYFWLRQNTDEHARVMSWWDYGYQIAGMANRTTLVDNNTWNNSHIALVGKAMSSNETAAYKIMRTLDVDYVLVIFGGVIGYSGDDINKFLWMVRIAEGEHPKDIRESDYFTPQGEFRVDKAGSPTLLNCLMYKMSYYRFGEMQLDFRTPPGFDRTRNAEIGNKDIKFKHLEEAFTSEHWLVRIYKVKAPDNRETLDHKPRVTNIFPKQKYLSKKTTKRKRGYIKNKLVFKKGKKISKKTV
UniProt Q96C24: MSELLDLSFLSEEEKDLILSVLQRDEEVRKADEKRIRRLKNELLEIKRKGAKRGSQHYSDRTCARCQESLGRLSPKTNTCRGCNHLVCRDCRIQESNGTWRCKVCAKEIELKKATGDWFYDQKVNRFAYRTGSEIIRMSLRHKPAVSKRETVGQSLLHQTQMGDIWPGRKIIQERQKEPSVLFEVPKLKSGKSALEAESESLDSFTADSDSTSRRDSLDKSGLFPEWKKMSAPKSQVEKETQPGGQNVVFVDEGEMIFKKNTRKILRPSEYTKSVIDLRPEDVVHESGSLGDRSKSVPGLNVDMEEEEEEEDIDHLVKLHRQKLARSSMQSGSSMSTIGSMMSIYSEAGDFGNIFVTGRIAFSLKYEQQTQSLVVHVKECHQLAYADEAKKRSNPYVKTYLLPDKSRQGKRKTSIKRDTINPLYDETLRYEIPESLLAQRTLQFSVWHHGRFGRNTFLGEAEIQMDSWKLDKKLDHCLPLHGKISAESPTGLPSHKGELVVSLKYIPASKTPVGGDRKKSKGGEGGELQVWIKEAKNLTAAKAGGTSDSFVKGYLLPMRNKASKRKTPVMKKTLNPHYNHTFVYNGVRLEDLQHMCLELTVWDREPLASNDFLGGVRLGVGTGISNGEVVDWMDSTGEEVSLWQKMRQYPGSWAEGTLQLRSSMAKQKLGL
UniProt O75410: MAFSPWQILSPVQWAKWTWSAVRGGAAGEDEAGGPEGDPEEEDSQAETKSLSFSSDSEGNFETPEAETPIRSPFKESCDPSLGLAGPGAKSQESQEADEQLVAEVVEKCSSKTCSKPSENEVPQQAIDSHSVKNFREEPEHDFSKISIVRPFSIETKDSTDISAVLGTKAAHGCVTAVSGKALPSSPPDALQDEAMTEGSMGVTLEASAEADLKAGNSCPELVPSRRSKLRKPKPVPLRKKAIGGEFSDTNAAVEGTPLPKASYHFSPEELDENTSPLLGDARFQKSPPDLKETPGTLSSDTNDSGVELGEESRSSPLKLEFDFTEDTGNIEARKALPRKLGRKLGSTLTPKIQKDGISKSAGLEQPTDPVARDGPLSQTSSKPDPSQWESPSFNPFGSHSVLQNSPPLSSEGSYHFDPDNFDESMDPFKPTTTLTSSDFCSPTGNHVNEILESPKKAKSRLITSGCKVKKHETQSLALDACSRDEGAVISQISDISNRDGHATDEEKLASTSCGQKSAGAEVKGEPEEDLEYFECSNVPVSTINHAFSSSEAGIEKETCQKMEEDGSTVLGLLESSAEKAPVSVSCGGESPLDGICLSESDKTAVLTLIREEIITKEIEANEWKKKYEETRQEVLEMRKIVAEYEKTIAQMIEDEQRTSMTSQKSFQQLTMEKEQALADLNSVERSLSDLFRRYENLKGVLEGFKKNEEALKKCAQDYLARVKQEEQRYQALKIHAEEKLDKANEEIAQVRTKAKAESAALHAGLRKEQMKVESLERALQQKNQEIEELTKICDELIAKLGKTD
UniProt Q1ZZU3: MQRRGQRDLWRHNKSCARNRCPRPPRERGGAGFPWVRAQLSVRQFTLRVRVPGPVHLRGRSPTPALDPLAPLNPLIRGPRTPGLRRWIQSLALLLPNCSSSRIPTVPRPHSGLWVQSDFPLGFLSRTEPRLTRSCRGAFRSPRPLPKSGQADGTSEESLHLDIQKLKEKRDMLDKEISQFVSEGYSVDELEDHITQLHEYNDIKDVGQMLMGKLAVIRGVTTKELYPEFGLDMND
UniProt O75683: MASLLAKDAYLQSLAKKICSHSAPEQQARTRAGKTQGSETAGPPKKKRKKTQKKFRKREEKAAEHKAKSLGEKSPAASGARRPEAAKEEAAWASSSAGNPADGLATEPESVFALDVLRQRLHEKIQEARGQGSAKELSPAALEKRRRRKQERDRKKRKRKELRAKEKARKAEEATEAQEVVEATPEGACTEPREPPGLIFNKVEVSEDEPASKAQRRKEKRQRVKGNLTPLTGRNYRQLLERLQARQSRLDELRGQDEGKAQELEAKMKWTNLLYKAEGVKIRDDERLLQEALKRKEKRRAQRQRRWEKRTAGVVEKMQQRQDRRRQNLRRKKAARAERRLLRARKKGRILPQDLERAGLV
UniProt P61956, whole entry, looked up: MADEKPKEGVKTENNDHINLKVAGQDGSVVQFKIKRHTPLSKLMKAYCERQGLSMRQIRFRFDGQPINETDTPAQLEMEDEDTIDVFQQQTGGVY
UniProt P16949: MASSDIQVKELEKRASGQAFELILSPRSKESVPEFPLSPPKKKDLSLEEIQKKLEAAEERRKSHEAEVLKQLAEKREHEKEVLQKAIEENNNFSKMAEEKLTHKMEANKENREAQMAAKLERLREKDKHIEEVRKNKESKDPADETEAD
UniProt Q9P2W9: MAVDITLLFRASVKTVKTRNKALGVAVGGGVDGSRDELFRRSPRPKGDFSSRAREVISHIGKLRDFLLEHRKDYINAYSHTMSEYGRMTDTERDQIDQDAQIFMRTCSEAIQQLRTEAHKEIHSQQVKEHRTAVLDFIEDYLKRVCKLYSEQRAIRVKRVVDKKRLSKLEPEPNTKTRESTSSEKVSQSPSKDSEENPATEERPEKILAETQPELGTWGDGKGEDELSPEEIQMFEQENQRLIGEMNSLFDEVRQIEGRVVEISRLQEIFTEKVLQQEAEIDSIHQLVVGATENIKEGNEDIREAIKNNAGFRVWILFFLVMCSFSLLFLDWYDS
UniProt P27105: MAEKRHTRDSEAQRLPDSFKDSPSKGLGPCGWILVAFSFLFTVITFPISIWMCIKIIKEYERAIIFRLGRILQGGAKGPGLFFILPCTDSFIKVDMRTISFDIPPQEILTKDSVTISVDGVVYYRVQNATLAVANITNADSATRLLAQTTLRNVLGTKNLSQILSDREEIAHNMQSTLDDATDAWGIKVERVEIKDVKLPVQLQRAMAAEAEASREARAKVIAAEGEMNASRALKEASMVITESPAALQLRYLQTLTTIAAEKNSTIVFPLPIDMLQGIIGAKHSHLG
UniProt P63165, whole entry, looked up: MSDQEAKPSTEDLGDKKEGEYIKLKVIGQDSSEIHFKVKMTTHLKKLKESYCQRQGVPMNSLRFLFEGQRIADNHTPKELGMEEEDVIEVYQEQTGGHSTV
UniProt Q13277: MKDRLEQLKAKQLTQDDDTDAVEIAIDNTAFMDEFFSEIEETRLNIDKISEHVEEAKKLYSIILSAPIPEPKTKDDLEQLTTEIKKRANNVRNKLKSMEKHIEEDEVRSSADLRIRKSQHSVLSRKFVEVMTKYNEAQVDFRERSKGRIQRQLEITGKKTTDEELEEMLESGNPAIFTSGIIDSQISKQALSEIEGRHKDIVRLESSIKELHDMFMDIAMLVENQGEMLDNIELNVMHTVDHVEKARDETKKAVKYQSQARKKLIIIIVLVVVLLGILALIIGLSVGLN

[2] = compound: C/C(=N\NC(=O)C1=CC(=CC=C1)S(=O)(=O)N2CCOCC2)/C3=C(C=CC(=C3)Cl)O
Summary of the method: as §1

[3] = compound: C1=CC(=CC=C1C2=NC3=C(N2)C=C(C=C3)C(=O)N)OC4=CC=C(C=C4)Cl
Summary of the method: as §1

[4] = compound: C1=CC2=C(C=CC(=C2)/C=C\3/C(=O)NC(=NCC4=CC=CS4)S3)N=C1
Summary of the method: as §1

[5] = compound: C1=CC2=NC=CN=C2C=C1/C=C/3\C(=O)NC(=O)S3
Summary of the method: as §1

[6] = compound: C1=CC=C(C=C1)C2=NC(=C(N2)C3=CC=NC=C3)C4=CC(=C(C=C4)Cl)O
Summary of the method: as §1

[7] = compound: C1=CC=C2C(=C1)C3=NNC4=CC=CC(=C43)C2=O
Summary of the method: as §1

[8] = compound: C1CCN(C1)C(=O)NC2=CC=CC(=C2)NC3=NC=C(C(=N3)NCCC4=CN=CN4)Br
Summary of the method: as §1

[9] = compound: C1CN(CCC1(CC2=CC=C(C=C2)Cl)N)C3=NC=NC4=C3C=CN4
Summary of the method: as §1

[10] = compound: C1COCCN1CCN2C3=CC=CC=C3N=C2NC(=O)C4=CC(=CC=C4)[N+](=O)[O-] [IRAK-1-4 Inhibitor I]
Summary of the method: as §1

[11] = compound: C=CC(=O)N1CCC[C@@H](n2nc(-c3ccc(Oc4ccccc4)cc3)c3c(N)ncnc32)C1 [ibrutinib]
Summary of the method: as §1

[12] = compound: CC(=O)c1cnc2ccc(-c3cc(Cl)c(O)c(Cl)c3)nc2c1N[C@H]1CC[C@H](CN(C)C)CC1
Summary of the method: as §1

[13] = compound: CC(C)(C)Cn1c(N)nc2ccc(-c3[nH]c(C(C)(C)C)nc3-c3ccc(F)cc3)nc21 [ralimetinib]
Summary of the method: as §1

[14] = compound: CC(C)(O)CC(=O)NCCn1ccc2ncnc(Nc3ccc(Oc4cccc(C(F)(F)F)c4)c(Cl)c3)c21
Summary of the method: as §1

[15] = compound: CC(C)C1=C2N=C(C=C(N2N=C1)NCC3=CC=CC=C3)NCCCCCCN
Summary of the method: as §1

[16] = compound: CC1=C(C(CC(=O)N1)C2=CC=C(C=C2)C(F)(F)F)C(=O)NC3=C(C=C4C(=C3)C=NN4)F
Summary of the method: as §1

[17] = compound: CC1=C(C2=C(C=C1)C(=O)C3=CC=CC=C3N2CCCN)C
Summary of the method: as §1

[18] = compound: CC1=C(C=C(C=C1)NC(=O)C2=CC(=CC=C2)C(C)(C)C#N)NC3=CC4=C(C=C3)N=CN(C4=O)C
Summary of the method: as §1

[19] = compound: CC1=C(C=C(C=C1)NC(=O)C2=CC(=CC=C2)N(C)C)NC(=O)C3=CC=C(C=C3)O
Summary of the method: as §1

[20] = compound: CC1=CC=C(C=C1)SC2=C3C=C(SC3=CN=C2)C(=O)N
Summary of the method: as §1

Measured: log2 fold change

SZRD1 (UniProt Q7Z422)
inactive: [1] -0.019 | [2] 0.005 | [3] 0.005 | [4] -0.049 | [5] 0.018 | [6] 0.043 | [7] -0.021 | [8] -0.016 | [9] 0.013 | [10] 0.011 | [11] 0.001 | [12] -0.03 | [13] -0.021 | [14] -0.046 | [15] -0.009 | [16] -0.046 | [17] -0.056 | [18] 0.03 | [19] 0.028 | [20] -0.017

SYNJ1 (UniProt O43426)
inactive: [1] -0.013 | [2] -0.028 | [3] 0.03 | [4] -0.021 | [5] -0.008 | [6] 0.016 | [7] -0.03 | [8] -0.011 | [9] 0 | [10] -0.019 | [11] 0.04 | [12] 0.025 | [13] -0.01 | [14] -0.001 | [15] -0.001 | [16] 0 | [17] -0.003 | [18] -0.001 | [19] 0 | [20] -0.015

STMN3 (UniProt Q9NZ72)
inactive: [1] 0.012 | [2] 0.01 | [3] -0.003 | [4] -0.122 | [5] -0.062 | [6] -0.026 | [7] 0.043 | [8] -0.097 | [9] 0.091 | [10] -0.006 | [11] 0.006 | [12] -0.028 | [13] 0.093 | [14] 0.025 | [15] -0.089 | [16] -0.003 | [17] -0.059 | [18] 0.012 | [19] -0.011 | [20] 0.009

STK26 (UniProt Q9P289)
inactive: [1] 0.008 | [2] -0.007 | [3] -0.005 | [4] -0.009 | [5] 0.002 | [6] -0.002 | [7] 0.06 | [8] 0.03 | [9] -0.011 | [10] -0.018 | [11] -0.043 | [12] 0.113 | [13] -0.018 | [14] 0.004 | [15] -0.015 | [16] -0.021 | [17] 0.006 | [18] -0.028 | [19] 0.035 | [20] -0.025

STT3B (UniProt Q8TCJ2)
inactive: [1] 0.007 | [2] 0.032 | [3] -0.006 | [4] 0.014 | [5] -0.031 | [6] -0.026 | [7] -0.061 | [8] 0.006 | [9] -0.045 | [10] -0.009 | [11] -0.059 | [12] -0.026 | [13] 0.01 | [14] -0.048 | [15] -0.018 | [16] 0.001 | [17] 0.015 | [18] 0.02 | [19] 0.044 | [20] 0.012

SYTL4 (UniProt Q96C24)
inactive: [1] 0.012 | [2] -0.109 | [3] -0.06 | [4] -0.153 | [5] -0.03 | [6] 0.01 | [7] 0.076 | [8] -0.007 | [9] 0.027 | [10] -0.072 | [11] -0.011 | [12] 0.065 | [13] -0.019 | [14] -0.027 | [15] -0.032 | [16] 0.148 | [17] 0.002 | [18] -0.03 | [19] -0.006 | [20] -0.125

TACC1 (UniProt O75410)
inactive: [1] -0.001 | [2] -0.029 | [3] -0.035 | [4] 0.011 | [5] -0.016 | [6] -0.051 | [7] 0.002 | [8] -0.01 | [9] -0.037 | [10] 0.029 | [11] 0.073 | [12] -0.022 | [13] -0.007 | [14] -0.069 | [15] -0.01 | [16] 0.126 | [17] -0.038 | [18] 0.012 | [19] -0.009 | [20] -0.02

Quoted from the entries so far (5 entries):
SZRD1 (UniProt Q7Z422)
inactive: [1] -0.019 | [2] 0.005 | [3] 0.005 | [4] -0.049 | [5] 0.018 | [6] 0.043 | [7] -0.021 | [8] -0.016 | [9] 0.013 | [10] 0.011 | [11] 0.001 | [12] -0.03 | [13] -0.021 | [14] -0.046 | [15] -0.009 | [16] -0.046 | [17] -0.056 | [18] 0.03 | [19] 0.028 | [20] -0.017

SYNJ1 (UniProt O43426)
inactive: [1] -0.013 | [2] -0.028 | [3] 0.03 | [4] -0.021 | [5] -0.008 | [6] 0.016 | [7] -0.03 | [8] -0.011 | [9] 0 | [10] -0.019 | [11] 0.04 | [12] 0.025 | [13] -0.01 | [14] -0.001 | [15] -0.001 | [16] 0 | [17] -0.003 | [18] -0.001 | [19] 0 | [20] -0.015

STMN3 (UniProt Q9NZ72)
inactive: [1] 0.012 | [2] 0.01 | [3] -0.003 | [4] -0.122 | [5] -0.062 | [6] -0.026 | [7] 0.043 | [8] -0.097 | [9] 0.091 | [10] -0.006 | [11] 0.006 | [12] -0.028 | [13] 0.093 | [14] 0.025 | [15] -0.089 | [16] -0.003 | [17] -0.059 | [18] 0.012 | [19] -0.011 | [20] 0.009

STK26 (UniProt Q9P289)
inactive: [1] 0.008 | [2] -0.007 | [3] -0.005 | [4] -0.009 | [5] 0.002 | [6] -0.002 | [7] 0.06 | [8] 0.03 | [9] -0.011 | [10] -0.018 | [11] -0.043 | [12] 0.113 | [13] -0.018 | [14] 0.004 | [15] -0.015 | [16] -0.021 | [17] 0.006 | [18] -0.028 | [19] 0.035 | [20] -0.025

STT3B (UniProt Q8TCJ2)
inactive: [1] 0.007 | [2] 0.032 | [3] -0.006 | [4] 0.014 | [5] -0.031 | [6] -0.026 | [7] -0.061 | [8] 0.006 | [9] -0.045 | [10] -0.009 | [11] -0.059 | [12] -0.026 | [13] 0.01 | [14] -0.048 | [15] -0.018 | [16] 0.001 | [17] 0.015 | [18] 0.02 | [19] 0.044 | [20] 0.012

Remaining list, next part

SWI5 (UniProt Q1ZZU3)
inactive: [1] 0.013 | [2] -0.013 | [3] 0.026 | [4] 0.091 | [5] -0.157 | [6] 0.009 | [7] 0.006 | [8] -0.237 | [9] 0.37 | [10] 0.052 | [11] 0.104 | [12] -0.039 | [13] 0.024 | [14] -0.032 | [15] 0.036 | [16] 0.095 | [17] 0.009 | [18] 0.064 | [19] -0.017 | [20] -0.051

SURF6 (UniProt O75683)
inactive: [1] -0.035 | [2] -0.02 | [3] -0.046 | [4] 0.016 | [5] -0.015 | [6] 0.018 | [7] 0.055 | [8] -0.008 | [9] -0.006 | [10] -0.02 | [11] -0.008 | [12] -0.023 | [13] -0.001 | [14] 0.023 | [15] -0.011 | [16] 0.001 | [17] -0.048 | [18] -0.024 | [19] 0.033 | [20] -0.012

SUMO2 (UniProt P61956)
inactive: [1] -0.02 | [2] 0.071 | [3] 0.016 | [4] 0.047 | [5] -0.068 | [6] 0.02 | [7] 0.014 | [8] 0.057 | [9] 0.048 | [10] -0.065 | [11] 0.069 | [12] -0.02 | [13] -0.066 | [14] 0.022 | [15] 0.034 | [16] -0.022 | [17] 0.048 | [18] 0.011 | [19] 0.085 | [20] -0.071

STMN1 (UniProt P16949)
inactive: [1] -0.057 | [2] -0.012 | [3] -0.001 | [4] -0.025 | [5] -0.018 | [6] 0.012 | [7] 0.031 | [8] 0.016 | [9] -0.005 | [10] 0.003 | [11] -0.008 | [12] 0.001 | [13] -0.002 | [14] -0.025 | [15] 0.031 | [16] -0.032 | [17] -0.028 | [18] -0.015 | [19] -0.005 | [20] -0.005

STX18 (UniProt Q9P2W9)
inactive: [1] 0.178 | [2] 0.022 | [3] 0.112 | [4] 0.026 | [5] -0.002 | [6] -0.103 | [7] -0.008 | [8] 0.077 | [9] -0.052 | [10] -0.233 | [11] 0.014 | [12] 0.055 | [13] 0.061 | [14] -0.128 | [15] 0.15 | [16] -0.14 | [17] -0.006 | [18] -0.055 | [19] 0.118 | [20] 0.043

STOM (UniProt P27105)
inactive: [1] -0.022 | [2] 0.07 | [3] 0.007 | [4] -0.034 | [5] 0.04 | [6] 0.005 | [7] -0.001 | [8] 0.051 | [9] -0.006 | [10] 0.007 | [11] 0.003 | [12] -0.01 | [13] -0.015 | [14] -0.044 | [15] -0.023 | [16] 0.012 | [17] -0.055 | [18] -0.047 | [19] 0.006 | [20] -0.005

SUMO1 (UniProt P63165)
inactive: [1] -0.055 | [2] 0 | [3] 0.009 | [4] 0.103 | [5] 0.013 | [6] -0.006 | [7] 0.06 | [8] -0.006 | [9] -0.061 | [10] -0.014 | [11] -0.015 | [12] 0.029 | [13] 0.023 | [14] -0.001 | [15] -0.025 | [16] -0.042 | [17] 0.059 | [18] 0.015 | [19] -0.02 | [20] 0.004

STRN4 isoform 3 (UniProt Q9NRL3)
inactive: [1] -0.026 | [2] -0.032 | [3] 0.004 | [4] -0.01 | [5] -0.006 | [6] -0.013 | [7] 0.032 | [8] -0.015 | [9] -0.006 | [10] 0.009 | [11] 0.025 | [12] -0.023 | [13] -0.011 | [14] 0.013 | [15] 0 | [16] 0.015 | [17] -0.008 | [18] -0.053 | [19] 0.023 | [20] -0.009

STX3 (UniProt Q13277)
inactive: [1] -0.059 | [2] 0 | [3] -0.012 | [4] 0.021 | [5] -0.016 | [6] 0.015 | [7] 0.007 | [8] 0.022 | [9] -0.002 | [10] 0.002 | [11] 0.018 | [12] 0.021 | [13] 0.037 | [14] -0.022 | [15] -0.006 | [16] 0.015 | [17] -0.002 | [18] -0.031 | [19] -0.003 | [20] 0.01

Reference: the supplement of paper PMC10849652
